These are yes or no findings as the source states them, for the method shown. In cells and extracts the contact can be indirect. Some results given as binding are weak or reduced against the parent protein; the word gives no strength. For part of these data: Where a sequence is shown, tags or fusion partners need not be part of it.

Chains of the proteins cited; added tags and fusions are not shown.
UniProt A2A935: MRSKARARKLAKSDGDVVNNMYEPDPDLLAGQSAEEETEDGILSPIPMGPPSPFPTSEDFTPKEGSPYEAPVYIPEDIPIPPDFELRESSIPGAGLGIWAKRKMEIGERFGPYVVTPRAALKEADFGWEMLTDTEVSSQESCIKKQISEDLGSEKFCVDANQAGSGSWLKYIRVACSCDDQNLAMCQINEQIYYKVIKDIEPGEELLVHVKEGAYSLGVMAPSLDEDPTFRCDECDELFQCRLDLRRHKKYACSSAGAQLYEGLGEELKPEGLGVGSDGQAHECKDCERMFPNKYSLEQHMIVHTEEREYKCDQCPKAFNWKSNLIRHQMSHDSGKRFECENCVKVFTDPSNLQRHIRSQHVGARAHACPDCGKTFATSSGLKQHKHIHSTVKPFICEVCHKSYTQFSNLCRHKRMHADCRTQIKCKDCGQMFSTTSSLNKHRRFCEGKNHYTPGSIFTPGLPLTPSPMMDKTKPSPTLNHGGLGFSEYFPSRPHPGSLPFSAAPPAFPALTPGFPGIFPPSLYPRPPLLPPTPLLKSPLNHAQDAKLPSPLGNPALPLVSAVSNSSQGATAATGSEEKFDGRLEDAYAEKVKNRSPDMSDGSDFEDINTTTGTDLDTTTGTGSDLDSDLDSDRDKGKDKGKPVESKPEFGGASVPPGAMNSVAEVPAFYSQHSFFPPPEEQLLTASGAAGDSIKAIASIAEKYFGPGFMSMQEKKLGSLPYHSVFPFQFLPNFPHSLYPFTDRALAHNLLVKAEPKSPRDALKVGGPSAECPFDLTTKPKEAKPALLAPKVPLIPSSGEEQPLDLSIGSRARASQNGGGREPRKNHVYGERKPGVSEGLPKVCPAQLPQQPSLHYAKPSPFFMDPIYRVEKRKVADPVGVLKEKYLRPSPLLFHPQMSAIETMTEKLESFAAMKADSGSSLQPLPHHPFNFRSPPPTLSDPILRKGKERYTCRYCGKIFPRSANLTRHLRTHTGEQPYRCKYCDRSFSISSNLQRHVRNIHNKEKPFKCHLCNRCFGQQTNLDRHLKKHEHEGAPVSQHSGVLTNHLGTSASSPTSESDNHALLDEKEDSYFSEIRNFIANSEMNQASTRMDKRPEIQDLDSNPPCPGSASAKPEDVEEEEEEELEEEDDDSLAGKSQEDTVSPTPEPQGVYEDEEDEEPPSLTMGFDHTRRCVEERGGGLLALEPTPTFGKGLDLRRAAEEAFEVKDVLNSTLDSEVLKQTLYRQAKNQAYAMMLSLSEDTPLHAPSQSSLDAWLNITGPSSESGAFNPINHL

We go through 3 molecules from article PMC5507986.

For assay [1], the target named is T1, Flag-Hlx (not stated (human or mouse cDNA cloned)) (UniProt Q61670).
T1 sequence: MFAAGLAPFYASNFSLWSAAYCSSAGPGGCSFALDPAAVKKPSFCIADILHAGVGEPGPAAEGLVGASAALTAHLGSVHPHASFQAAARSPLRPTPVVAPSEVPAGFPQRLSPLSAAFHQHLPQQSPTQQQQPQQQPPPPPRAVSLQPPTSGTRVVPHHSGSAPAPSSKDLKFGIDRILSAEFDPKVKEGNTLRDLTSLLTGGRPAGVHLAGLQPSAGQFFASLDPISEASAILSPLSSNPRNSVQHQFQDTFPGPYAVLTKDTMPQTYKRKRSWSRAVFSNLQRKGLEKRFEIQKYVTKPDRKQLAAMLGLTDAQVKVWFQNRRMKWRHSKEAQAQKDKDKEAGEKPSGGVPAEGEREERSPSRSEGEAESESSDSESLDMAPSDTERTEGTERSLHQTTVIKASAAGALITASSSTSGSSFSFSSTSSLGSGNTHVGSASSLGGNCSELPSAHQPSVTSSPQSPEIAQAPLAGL
As to the kind of experiment: co-IP; Flag-Hlx (or vector) and HA-tagged partner transfected into HEK293 cells, 48 h; extracts in 100 mM NaCl, 50 mM Tris pH 7.5, 0.5% Triton X-100, 5% glycerol; anti-Flag M2 affinity gel 3 h; four washes (100 mM NaCl, 50 mM Tris pH 7.5, 0.1% NP-40, 3% glycerol); blot with HA antibody.

For assay [2], the target named is T2, Hlx (endogenous, brown adipocytes) (mouse (endogenous in immortalized brown adipocytes)) (UniProt Q61670).
T2 sequence: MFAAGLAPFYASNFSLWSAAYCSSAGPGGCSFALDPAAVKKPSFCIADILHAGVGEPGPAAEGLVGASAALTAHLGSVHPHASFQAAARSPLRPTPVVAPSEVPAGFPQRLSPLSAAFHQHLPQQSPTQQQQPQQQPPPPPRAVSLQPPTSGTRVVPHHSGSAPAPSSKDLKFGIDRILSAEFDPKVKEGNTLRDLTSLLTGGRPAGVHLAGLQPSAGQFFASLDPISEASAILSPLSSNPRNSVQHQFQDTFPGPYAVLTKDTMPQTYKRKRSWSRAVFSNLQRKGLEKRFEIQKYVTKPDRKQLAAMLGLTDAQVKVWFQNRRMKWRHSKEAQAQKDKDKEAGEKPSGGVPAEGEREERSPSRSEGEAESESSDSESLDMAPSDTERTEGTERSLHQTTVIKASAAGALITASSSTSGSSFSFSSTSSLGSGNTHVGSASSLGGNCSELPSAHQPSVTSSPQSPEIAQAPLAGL
As to the kind of experiment: co-IP; endogenous proteins; differentiated brown adipocyte extracts; Hlx antibody or IgG overnight at 4 °C, protein-A beads 3 h; five washes; blot with Prdm16 antibody.

As for HA-Prdm16 (from UniProt A2A935 1-1275), the binding entry in assay [1] was “binds”. With “Prdm16 (endogenous, brown adipocytes) (from UniProt A2A935 1-1275)”, the binding result in assay [2] is recorded as “binds”.

B1: HA-Pgc1α (protein, UniProt O70343 1-797)
chain: MAWDMCSQDSVWSDIECAALVGEDQPLCPDLPELDLSELDVNDLDTDSFLGGLKWCSDQSEIISNQYNNEPANIFEKIDEENEANLLAVLTETLDSLPVDEDGLPSFDALTDGAVTTDNEASPSSMPDGTPPPQEAEEPSLLKKLLLAPANTQLSYNECSGLSTQNHAANHTHRIRTNPAIVKTENSWSNKAKSICQQQKPQRRPCSELLKYLTTNDDPPHTKPTENRNSSRDKCASKKKSHTQPQSQHAQAKPTTLSLPLTPESPNDPKGSPFENKTIERTLSVELSGTAGLTPPTTPPHKANQDNPFKASPKLKPSCKTVVPPPTKRARYSECSGTQGSHSTKKGPEQSELYAQLSKSSGLSRGHEERKTKRPSLRLFGDHDYCQSLNSKTDILINISQELQDSRQLDFKDASCDWQGHICSSTDSGQCYLRETLEASKQVSPCSTRKQLQDQEIRAELNKHFGHPCQAVFDDKSDKTSELRDGDFSNEQFSKLPVFINSGLAMDGLFDDSEDESDKLSYPWDGTQPYSLFDVSPSCSSFNSPCRDSVSPPKSLFSQRPQRMRSRSRSFSRHRSCSRSPYSRSRSRSPGSRSSSRSCYYYESSHYRHRTHRNSPLYVRSRSRSPYSRRPRYDSYEAYEHERLKRDEYRKEHEKRESERAKQRERQKQKAIEERRVIYVGKIRPDTTRTELRDRFEVFGEIEECTVNLRDDGDSYGFITYRYTCDAFAALENGYTLRRSNETDFELYFCGRKQFFKSNYADLDTNSDDFDPASTKSKYDSLDFDSLLKEAQRSLRR
As for B1, in assay [1], the binding entry is recorded as “no binding”.
